Measurements taken from patent US20040014779A1, “Methods and compositions related to IRM compounds and toll-like recptor pathways” (3M Innovative Properties Company, priority 2001, published 2004).
At least one read-out could not be matched to a standard name with certainty.

System: NF-κB
Assay: NFkB-luc reporter in HEK293 cells with empty vector control
Format: cell-based, human
Settings: luciferase signal, 10 μM, 16 hours
Protocol: HEK 293 cells were cultured in Minimum Essential Medium (MEM) with 2 mM L-glutamine and Earle's Balanced Salt Solution (Invitrogen Corp., Rockville, Md.) adjusted to contain 1.5 g/L sodium bicarbonate, 0.1 mM non-essential amino acids, and 1.0 mM sodium pyruvate, 90%; heat-inactivated fetal calf serum, 10%. The cells were incubated at 37° C., 8% CO2.
The cells were co-transfected with human TLR7 or Empty Vector control pIRES (BD Biosciences Clontech, Palo Alto, Calif.) along with NFkB-luc reporter (Stratagene, La Jolla, Calif.) in a 10:1 ratio with Fugene 6 transfection reagent (Roche Diagnostics Corp., Indianapolis, Ind.) following the manufacturer's instructions.
The cells were stimulated with 1 μL of IRM compounds at 1 mM in DMSO (final concentration of 10 μM) or 1 μL DMSO as a control. The plates were then incubated an additional 16 hours at 37° C., 5% CO2. The luciferase signal was read using the LucLite kit (Packard Instrument Co., Meriden, Conn.). The luminescence was measured on the Topcount NXT (Packard Instrument Co., Meriden, Conn.).

For `CCCCc1nc2c(N)nc(C)c(C)c2n1CCCCNS(C)(=O)=O` [IRM 17, N-[4-(4-amino-2-butyl-6,7-dimethyl-1H-imidazo[4,5-c]pyridin-1-yl)butyl]methanesulfonamide], the “Fold Increase Over DMSO Control, HEK 293 Vector” value was 1.67 fold.
